# Test results published in US20240417469A1.
# Protein sequences, listed by entry. Tags and fused reporters are not part of them. Lines headed by an entry give the natural chain unless they say otherwise; changes in a name come on top.
# UniProt P07766: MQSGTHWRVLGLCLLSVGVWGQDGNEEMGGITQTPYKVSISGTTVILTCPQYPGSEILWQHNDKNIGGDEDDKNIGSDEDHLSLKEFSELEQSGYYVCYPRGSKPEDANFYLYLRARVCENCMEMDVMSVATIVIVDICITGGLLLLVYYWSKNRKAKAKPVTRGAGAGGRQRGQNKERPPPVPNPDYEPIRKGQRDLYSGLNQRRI
# UniProt P04234: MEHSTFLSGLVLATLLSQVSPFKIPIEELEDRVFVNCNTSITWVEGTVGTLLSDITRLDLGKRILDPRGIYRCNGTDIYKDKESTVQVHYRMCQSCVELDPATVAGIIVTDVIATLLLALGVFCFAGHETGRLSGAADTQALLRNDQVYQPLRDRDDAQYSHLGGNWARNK
# No constants are given. Whether binding was seen depends on the method and setting. Some binding calls cover weakened binding; strength is not graded here.
# Biological target: human CD3 protein (human) (UniProt P07766+P04234)
# Assay: ELISA
row,Binder,binding
1,"Hu155A9B1-5 (antibody, V domains shown) VH: EVQLQESGPGLVKPSETLSLTCTVSGFSISSYNVHWVRQPPGKGLEWMGRVRYNGDTSYNSALKSRLTISRDTSKNQASLKLSSVTAADTAVYYCTRGPYGGSSEPLFDYWGQGTMVTVSS VL: DIQMTQSPSSLSASVGDRVTITCKASQNINKYLNWYQQKPGKAPRLLIYTTNNLQTGVPSRFSGSGSGTDFTLTISSLQPEDFATYYCLQHNSGYTFGQGTKLEIK",binds
2,"Hu155A9B1-9 (antibody, V domains shown) VH: EVQLQESGPGLVKPSETLSLTCTVSGGSISSYNVHWVRQPPGKGLEWMGRVRYNGDTSYNSALKSRLTISRDTSKNQFSLKLSSVTAADTAVYYCARGPYGGSSEPLFDYWGQGTMVTVSS VL: DIQMTQSPSSLSASVGDRVTITCKASQNINKYLNWFQQKPGKAPRLLIYTTNNLQTGIPSRFSGSGSGTDFTLTISSLQPEDFATYYCLQHNSGYTFGQGTKLEIK",binds
3,"Hu155A9B1-14 (antibody, V domains shown) VH: EVQLQESGPGLVKPSETLSLTCTVSGGSISSYNVHWVRQPPGKGLEWIGRVRYNGDTSYNSALKSRVTISRDTSKNQFSLKLSSVTAADTAVYYCARGPYGGSSEPLFDYWGQGTMVTVSS VL: DIQMTQSPSSLSASVGDRVTITCKASQNINKYLNWFQQKPGKAPRLLIYTTNNLQTGIPSRFSGSGSGTDFTLTISSLQPEDFATYFCLQHNSGYTFGQGTKLEIK",binds
4,"Hu155A9B1-10 (antibody, V domains shown) VH: EVQLQESGPGLVKPSETLSLTCTVSGGSISSYNVHWVRQPPGKGLEWMGRVRYNGDTSYNSALKSRLTISRDTSKNQFSLKLSSVTAADTAVYYCTRGPYGGSSEPLFDYWGQGTMVTVSS VL: DIQMTQSPSSLSASVGDRVTITCKASQNINKYLNWFQQKPGKAPRLLIYTTNNLQTGIPSRFSGSGSGTDFTLTISSLQPEDFATYYCLQHNSGYTFGQGTKLEIK",binds
5,"Hu155A9B1-6 (antibody, V domains shown) VH: EVQLQESGPGLVKPSETLSLTCTVSGFSLTSYNVHWVRQPPGKGLEWMGRVRYNGDTSYNSALKSRLTISRDTSKNQASLKLSSVTAADTAVYYCTRGPYGGSSEPLFDYWGQGTMVTVSS VL: DIQMTQSPSSLSASVGDRVTITCKASQNINKYLNWYQQKPGKAPRLLIYTTNNLQTGVPSRFSGSGSGTDFTLTISSLQPEDFATYYCLQHNSGYTFGQGTKLEIK",binds
6,"Hu155A9B1-15 (antibody, V domains shown) VH: EVQLQESGPGLVKPSETLSLTCTVSGGSISSYNVHWVRQPPGKGLEWMGRVRYNGDTSYNSALKSRLTISRDTSKNQFSLKLSSVTAADTAVYYCARGPYGGSSEPLFDYWGQGTMVTVSS VL: DIQMTQSPSSLSASVGDRVTITCKASQNINKYLNWFQQKPGKAPRLLIYTTNNLQTGIPSRFSGSGSGTDFTLTISSLQPEDFATYFCLQHNSGYTFGQGTKLEIK",binds
7,"Hu155A9B1-16 (antibody, V domains shown) VH: EVQLQESGPGLVKPSETLSLTCTVSGGSISSYNVHWVRQPPGKGLEWMGRVRYNGDTSYNSALKSRLTISRDTSKNQFSLKLSSVTAADTAVYYCTRGPYGGSSEPLFDYWGQGTMVTVSS VL: DIQMTQSPSSLSASVGDRVTITCKASQNINKYLNWFQQKPGKAPRLLIYTTNNLQTGIPSRFSGSGSGTDFTLTISSLQPEDFATYFCLQHNSGYTFGQGTKLEIK",binds
8,"Hu155A9B1-13 (antibody, V domains shown) VH: EVQLQESGPGLVKPSETLSLTCTVSGGSISSYNVHWIRQPPGKGLEWIGRVRYNGDTSYNSALKSRVTISVDTSKNQFSLKLSSVTAADTAVYYCARGPYGGSSEPLFDYWGQGTMVTVSS VL: DIQMTQSPSSLSASVGDRVTITCKASQNINKYLNWFQQKPGKAPRLLIYTTNNLQTGIPSRFSGSGSGTDFTLTISSLQPEDFATYFCLQHNSGYTFGQGTKLEIK",binds
9,"Hu155A9B1-12 (antibody, V domains shown) VH: EVQLQESGPGLVKPSETLSLTCTVSGFSLTSYNVHWVRQPPGKGLEWMGRVRYNGDTSYNSALKSRLTISRDTSKNQASLKLSSVTAADTAVYYCTRGPYGGSSEPLFDYWGQGTMVTVSS VL: DIQMTQSPSSLSASVGDRVTITCKASQNINKYLNWFQQKPGKAPRLLIYTTNNLQTGIPSRFSGSGSGTDFTLTISSLQPEDFATYYCLQHNSGYTFGQGTKLEIK",binds
10,"Hu155A9B1-11 (antibody, V domains shown) VH: EVQLQESGPGLVKPSETLSLTCTVSGFSISSYNVHWVRQPPGKGLEWMGRVRYNGDTSYNSALKSRLTISRDTSKNQASLKLSSVTAADTAVYYCTRGPYGGSSEPLFDYWGQGTMVTVSS VL: DIQMTQSPSSLSASVGDRVTITCKASQNINKYLNWFQQKPGKAPRLLIYTTNNLQTGIPSRFSGSGSGTDFTLTISSLQPEDFATYYCLQHNSGYTFGQGTKLEIK",binds
11,"Hu155A9B1-7 (antibody, V domains shown) VH: EVQLQESGPGLVKPSETLSLTCTVSGGSISSYNVHWIRQPPGKGLEWIGRVRYNGDTSYNSALKSRVTISVDTSKNQFSLKLSSVTAADTAVYYCARGPYGGSSEPLFDYWGQGTMVTVSS VL: DIQMTQSPSSLSASVGDRVTITCKASQNINKYLNWFQQKPGKAPRLLIYTTNNLQTGIPSRFSGSGSGTDFTLTISSLQPEDFATYYCLQHNSGYTFGQGTKLEIK",binds

# The remaining lines, values ahead:
row,binding,Binder
1,binds,"Hu192A7B9-3 (antibody, V domains shown) VH: EVQLQESGPGLVKPSETLSLTCTVSGGSISSYNVHWVRQPPGKGLEWMGRMRYNGDTSYNSALKSRLTISRDTSKNQFSLKLSSVTAADTAVYYCARGPRGGYYSALFDYWGQGTMVTVSS VL: DIQMTQSPSSLSASVGDRVTITCKASQNINRYLNWYQQKPGKAPKLLIYIANSLQTGVPSRFSGSGSGTDFTLTISSLQPEDFATYYCLQHNSWYTFGQGTKLEIK"
2,binds,"Hu192A7B9-1 (antibody, V domains shown) VH: EVQLQESGPGLVKPSETLSLTCTVSGGSISSYNVHWIRQPPGKGLEWIGRMRYNGDTSYNSALKSRVTISVDTSKNQFSLKLSSVTAADTAVYYCARGPRGGYYSALFDYWGQGTMVTVSS VL: DIQMTQSPSSLSASVGDRVTITCKASQNINRYLNWYQQKPGKAPKLLIYIANSLQTGVPSRFSGSGSGTDFTLTISSLQPEDFATYYCLQHNSWYTFGQGTKLEIK"
3,binds,"Hu155A9B1-17 (antibody, V domains shown) VH: EVQLQESGPGLVKPSETLSLTCTVSGFSISSYNVHWVRQPPGKGLEWMGRVRYNGDTSYNSALKSRLTISRDTSKNQASLKLSSVTAADTAVYYCTRGPYGGSSEPLFDYWGQGTMVTVSS VL: DIQMTQSPSSLSASVGDRVTITCKASQNINKYLNWFQQKPGKAPRLLIYTTNNLQTGIPSRFSGSGSGTDFTLTISSLQPEDFATYFCLQHNSGYTFGQGTKLEIK"
4,binds,"Hu155A9B1-18 (antibody, V domains shown) VH: EVQLQESGPGLVKPSETLSLTCTVSGFSLTSYNVHWVRQPPGKGLEWMGRVRYNGDTSYNSALKSRLTISRDTSKNQASLKLSSVTAADTAVYYCTRGPYGGSSEPLFDYWGQGTMVTVSS VL: DIQMTQSPSSLSASVGDRVTITCKASQNINKYLNWFQQKPGKAPRLLIYTTNNLQTGIPSRFSGSGSGTDFTLTISSLQPEDFATYFCLQHNSGYTFGQGTKLEIK"
5,binds,"Hu192A7B9-2 (antibody, V domains shown) VH: EVQLQESGPGLVKPSETLSLTCTVSGGSISSYNVHWVRQPPGKGLEWIGRMRYNGDTSYNSALKSRVTISRDTSKNQFSLKLSSVTAADTAVYYCARGPRGGYYSALFDYWGQGTMVTVSS VL: DIQMTQSPSSLSASVGDRVTITCKASQNINRYLNWYQQKPGKAPKLLIYIANSLQTGVPSRFSGSGSGTDFTLTISSLQPEDFATYYCLQHNSWYTFGQGTKLEIK"
